# Measurements from patent US20110092445A1 (Abbott Laboratories, priority 2008, published 2011).
# Experiment: general procedure: Fmoc solid-phase peptide synthesis; Fmoc-Ala-PEG polystyrene resin, Fmoc-Ala-Wang resin, Rink amide MBHA resin; HATU/DIEA (Pioneer); HBTU/HOBt/DIEA (433)
# Conditions: whole synthesis, scale 100 umol
sequence,measurement,value
MDAEFRHDSGYEVHHQKCVFFAEDVGSNKGAIIGCMVGGVVIA,crude mass,0.319 g
same,crude yield,62.6%
same,isolated mass,0.0274 g
same,isolated yield,8.5%

# Plain letter strings leave the end groups untold.
